PubChem BioAssay AID1259308, NCATS – 2017
This is one part, drawn at random, of about 59,000 deposited reagents. Over the whole deposit, about 1,510 (2.6%) are marked active. 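Calls use total luciferase alone and ignore viability, so some active siRNAs may act by altering cell number.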 The numbers tell different reagents against one gene apart.

Purpose: 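Knock-downs that increase output of a recombinant reporter protein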 (primary screen)
System: human HEK293 embryonic kidney cells stably expressing firefly luciferase (HEK-CMV-Luc2-Hygro)
Knock-down reagent: single siRNA against human genes, 0.8 pmol siRNA per well
Duration: 72 h
Read-out: 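Luciferase light (ONE-Glo) measured on one replicate plate set and viability (CellTiter-Glo) on the other, scaled to a negative control siRNA, with robust z-scores and luciferase per cell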
Reading the numbers: total luciferase, z-score and total luciferase, % of control: higher = more reporter protein produced; luciferase per cell, z-score: higher = more reporter output per viable cell; viable cells, % of control: higher = more viable cells
Hit rule: 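Active when the median/MAD z-score for overall luciferase is greater than 3; a gene was taken forward for validation with new siRNAs if at least two of its three siRNAs passed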
Calls: active = raised luciferase; inactive = no rise

no.	target gene	reagent no.	total luciferase, z-score	total luciferase, % of control	luciferase per cell, z-score	viable cells, % of control	Call
1	RPF2P1	1	-0.404	73.9	0.41	74.1	inactive
2	RPF2P1	2	-1.65	49.1	-2.09	95.2	inactive
3	RPF2P1	3	-1.59	50.3	-2.16	99.4	inactive
4	TVP23A	1	-0.849	65	-1.14	98.2	inactive
5	TVP23A	2	0.744	96.7	0.554	93.4	inactive
6	TVP23A	3	0.0852	83.6	1.48	63.2	inactive
7	UBE3B	1	0.492	91.7	0.323	94.1	inactive
8	UBE3B	2	0.155	85	0.786	77.2	inactive
9	UBE3B	3	-0.235	77.2	-0.464	97.5	inactive
10	AGBL5	1	-0.21	77.7	-0.464	98.1	inactive
11	AGBL5	2	3.46	151	2.56	85.8	active
12	AGBL5	3	0.0215	82.3	1.2	67.1	inactive
13	NLK	1	1.23	106	0.993	91.4	inactive
14	NLK	2	1.05	103	0.297	106	inactive
15	NLK	3	-0.603	69.9	-1.07	104	inactive
16	ZNF781	1	-0.34	75.1	0.371	76.1	inactive
17	ZNF781	2	0.391	89.7	0.264	93.5	inactive
18	ZNF781	3	1.9	120	0.779	109	inactive
19	CLDN6	1	-0.439	73.2	-0.486	92.9	inactive
20	CLDN6	2	-0.612	69.7	-0.664	92.8	inactive
21	CLDN6	3	0.51	92	1.22	74.5	inactive
22	NOTUM	1	1.12	104	0.658	97.9	inactive
23	NOTUM	2	0.295	87.7	0.0114	97.8	inactive
24	NOTUM	3	0.0111	82.1	0.603	78.3	inactive
25	ZFP92	1	0.583	93.5	0.114	101	inactive
26	ZFP92	2	0.308	88	0.415	88.2	inactive
27	ZFP92	3	0.681	95.4	0.169	102	inactive
28	GPR153	1	-0.281	76.3	0.832	68.5	inactive
29	GPR153	2	-0.317	75.6	-0.797	104	inactive
30	GPR153	3	-0.0652	80.6	0.143	86.7	inactive
31	NUB1	1	1.2	106	1.14	87.6	inactive
32	NUB1	2	0.0562	83	-0.196	97.7	inactive
33	NUB1	3	0.648	94.8	0.33	97.1	inactive
34	PCDH12	1	0.132	84.5	1.74	59.8	inactive
35	PCDH12	2	2.93	140	2.55	80	inactive
36	PCDH12	3	0.145	84.8	-0.209	100	inactive
37	CLEC5A	1	0.414	90.1	2.02	59.1	inactive
38	CLEC5A	2	-0.282	76.3	0.706	70.8	inactive
39	CLEC5A	3	1.3	108	2.67	59.6	inactive
40	ROCK1	1	-0.502	71.9	-0.561	93.1	inactive
41	ROCK1	2	0.0902	83.7	0.505	81.9	inactive
42	ROCK1	3	-0.795	66.1	-1.39	106	inactive
43	IER3IP1	1	1.46	111	0.973	96	inactive
44	IER3IP1	2	-0.0964	80	0.121	86.6	inactive
45	IER3IP1	3	-0.318	75.6	0.357	76.9	inactive
46	SYT5	1	-0.557	70.8	-0.969	102	inactive
47	SYT5	2	1.52	112	0.792	102	inactive
48	SYT5	3	-0.844	65.1	-0.775	89.2	inactive
49	ARHGEF5	1	1.47	111	1.05	94.1	inactive
50	ARHGEF5	2	-0.699	68	0.321	69.8	inactive
51	ARHGEF5	3	-1.1	60	-1.02	87.7	inactive
52	SCAMP5	1	-0.998	62	-0.156	72.2	inactive
53	SCAMP5	2	-0.205	77.8	-0.183	91.2	inactive
54	SCAMP5	3	0.369	89.2	0.52	87	inactive
55	MECP2	1	0.713	96.1	-0.2	113	inactive
56	MECP2	2	1.07	103	0.791	93.5	inactive
57	MECP2	3	-0.194	78	0.95	67.9	inactive
